Test results reported in paper PMC5173032.
Results are given in words; binding and its absence hold for the method and conditions named.

Target: T1, 315L-368Sdel-FXII (human) (UniProt P00748)
T1 sequence: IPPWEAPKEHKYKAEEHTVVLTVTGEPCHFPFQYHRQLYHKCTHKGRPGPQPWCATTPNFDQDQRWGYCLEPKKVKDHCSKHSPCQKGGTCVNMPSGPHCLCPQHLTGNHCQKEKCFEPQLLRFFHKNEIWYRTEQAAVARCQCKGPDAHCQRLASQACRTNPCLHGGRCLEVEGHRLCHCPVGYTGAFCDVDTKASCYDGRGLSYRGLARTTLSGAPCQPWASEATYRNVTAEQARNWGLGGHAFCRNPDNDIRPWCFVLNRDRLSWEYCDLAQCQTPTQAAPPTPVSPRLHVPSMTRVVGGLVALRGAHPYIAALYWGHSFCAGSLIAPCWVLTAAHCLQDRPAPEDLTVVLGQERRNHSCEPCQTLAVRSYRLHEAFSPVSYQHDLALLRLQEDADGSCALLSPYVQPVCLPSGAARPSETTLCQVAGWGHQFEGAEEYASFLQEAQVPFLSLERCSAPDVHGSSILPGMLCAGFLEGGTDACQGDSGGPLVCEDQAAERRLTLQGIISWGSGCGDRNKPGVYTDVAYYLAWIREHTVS
Experiment: co-IP; purified proteins: hPEPD, an hPEPD mutant or mSRC at 40 nM incubated with a coagulation factor, FXII or an FXII mutant at 0.5 μM in PBS, 100 μl, 2 h at 37°C; then a specific primary antibody at 4°C overnight, IP by protein G-agarose, IB; both purified

B1: recombinant human prolidase (peptidase D, PEPD) (enzyme, UniProt P12955 1-493)
chain: MAAATGPSFWLGNETLKVPLALFALNRQRLCERLRKNPAVQAGSIVVLQGGEETQRYCTDTGVLFRQESFFHWAFGVTEPGCYGVIDVDTGKSTLFVPRLPASHATWMGKIHSKEHFKEKYAVDDVQYVDEIASVLTSQKPSVLLTLRGVNTDSGSVCREASFDGISKFEVNNTILHPEIVECRVFKTDMELEVLRYTNKISSEAHREVMKAVKVGMKEYELESLFEHYCYSRGGMRHSSYTCICGSGENSAVLHYGHAGAPNDRTIQNGDMCLFDMGGEYYCFASDITCSFPANGKFTADQKAVYEAVLRSSRAVMGAMKPGVWWPDMHRLADRIHLEELAHMGILSGSVDAMVQAHLGAVFMPHGLGHFLGIDVHDVGGYPEGVERIDEPGLRSLRTARHLQPGMVLTVEPGIYFIDHLLDEALADPARASFLNREVLQRFRGFGGVRIEEDVVVTDSGIELLTCVPRTVEEIEACMAGCDKAFTPFSGPK
binding: no binding (tested: hPEPD 40 nM, FXII mutant 0.5 μM)
